The target in experiment [1] is GST-fused C-terminal domain of RSV P protein, P(161–241) (human respiratory syncytial virus) (UniProt P03421). Put plainly: pull-down; preparative co-purification: N co-expressed with GST-P(161–241) in E. coli, clarified lysate on glutathione-Sepharose 4B beads, 4 °C, 3 h; 20 mM Tris-HCl pH 8.5, 150 mM NaCl washes.
Experiment [2] addresses RSV N-RNA complex (full-length N protein in ring-shaped complexes with bacterial RNA) (human respiratory syncytial virus) (UniProt P03418). Put plainly: fluorescence polarisation; competition: unlabeled P_(10EE) varied against 200 nM BCN_(10EE) on 1 µM N-RNA; Tris pH 8 buffer; Hill equation; Ki from the IC50-to-Ki server; both purified.
Experiment [3] shares this target. Briefly: fluorescence polarisation; competition: unlabeled P5E varied against 200 nM F5E on 10 µM N-RNA; Tris pH 8 without salt; Hill equation; Ki from the IC50-to-Ki server; both purified.
For experiment [4] the target is unchanged. Briefly: fluorescence polarisation; competition: unlabeled P peptide varied against 200 nM F11 on 10 µM N-RNA; Tris pH 8 without salt; Hill equation; Ki from the IC50-to-Ki server; both purified.
Experiment [5] shares this target. Briefly: fluorescence polarisation; competition: unlabeled P7E varied against 200 nM F7E on 10 µM N-RNA; Tris pH 8 without salt; Hill equation; Ki from the IC50-to-Ki server; both purified.
The target is the same in experiment [6]. Briefly: fluorescence polarisation; competition: unlabeled pP11 varied against 200 nM BCN_(11EE) on 1 µM N-RNA; Tris pH 8 buffer; Hill equation; Ki from the IC50-to-Ki server; both purified.

Chains of the proteins cited; added tags and fusions are not shown. Residues count along the entry.
UniProt P03421, residues 161-241: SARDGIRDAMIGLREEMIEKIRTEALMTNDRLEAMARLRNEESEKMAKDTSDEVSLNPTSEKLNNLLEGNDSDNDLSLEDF
UniProt P03418: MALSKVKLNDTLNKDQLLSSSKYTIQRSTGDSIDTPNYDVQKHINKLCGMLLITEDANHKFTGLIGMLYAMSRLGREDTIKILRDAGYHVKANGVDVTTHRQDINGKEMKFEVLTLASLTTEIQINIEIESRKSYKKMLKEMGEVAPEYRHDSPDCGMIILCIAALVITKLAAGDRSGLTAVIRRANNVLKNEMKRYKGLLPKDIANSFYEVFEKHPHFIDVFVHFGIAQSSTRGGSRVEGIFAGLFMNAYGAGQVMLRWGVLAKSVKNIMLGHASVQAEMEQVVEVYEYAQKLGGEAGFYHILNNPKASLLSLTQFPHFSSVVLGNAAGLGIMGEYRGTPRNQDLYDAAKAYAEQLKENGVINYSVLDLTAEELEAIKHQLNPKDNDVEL

These are yes or no findings as the source states them, for the method shown. For part of these data: Binding seen in cells or lysates may run through a third protein. Some results given as binding are weak or reduced against the parent protein; the word gives no strength.

Regarding “RSV N-RNA complex (full-length N protein in ring-shaped complexes with bacterial RNA) (from UniProt P03418 1-391)”, in experiment [1], the binding entry is “binds”.

B1: BCN_(10EE) (dicyano BODIPY FL-labelled RSV P 10-mer, Ser232Glu/Ser237Glu) (peptide)
peptide: EDNDLELEDF
modifications: dicyano BODIPY FL on the N-terminus
Take B1: the binding entry in experiment [2] is given as “binds”.

B2: F5E (FTU-labelled RSV P 5-mer, Ser237Glu) (peptide)
peptide: ELEDF
modifications: fluorescein-5-thiourea (FTU) on the N-terminus
Turning to B2, in experiment [3], the binding entry was “binds”.

B3: F11 (fluorescein-5-thiourea-labelled RSV P11 peptide) (peptide)
peptide: DSDNDLSLEDF
modifications: fluorescein-5-thiourea (FTU) on the N-terminus
As to B3, the binding result in experiment [4] is on record as “binds”.

B4: F7E (FTU-labelled RSV P 7-mer, Ser237Glu) (peptide)
peptide: DLELEDF
modifications: fluorescein-5-thiourea (FTU) on the N-terminus
In the case of B4, the binding entry in experiment [5] is listed as “binds”.

B5: BCN_(11EE) (dicyano BODIPY FL-labelled RSV P 11-mer, Ser232Glu/Ser237Glu) (peptide)
peptide: DEDNDLELEDF
modifications: dicyano BODIPY FL on the N-terminus
As for B5, the binding result in experiment [6] is recorded as “binds”.

These data come from publication PMC9820559, “Investigation of the Fuzzy Complex between RSV Nucleoprotein and Phosphoprotein to Optimize an Inhibition Assay by Fluorescence Polarization” (International Journal of Molecular Sciences, 2022).
